Among the data in PMC11920766 are binding values, retold here.

Amino acid sequences for entries named in this document (tags omitted). A change or cut given only in a name is not applied to a line headed by its entry. Residues count along the entry.
UniProt Q14974: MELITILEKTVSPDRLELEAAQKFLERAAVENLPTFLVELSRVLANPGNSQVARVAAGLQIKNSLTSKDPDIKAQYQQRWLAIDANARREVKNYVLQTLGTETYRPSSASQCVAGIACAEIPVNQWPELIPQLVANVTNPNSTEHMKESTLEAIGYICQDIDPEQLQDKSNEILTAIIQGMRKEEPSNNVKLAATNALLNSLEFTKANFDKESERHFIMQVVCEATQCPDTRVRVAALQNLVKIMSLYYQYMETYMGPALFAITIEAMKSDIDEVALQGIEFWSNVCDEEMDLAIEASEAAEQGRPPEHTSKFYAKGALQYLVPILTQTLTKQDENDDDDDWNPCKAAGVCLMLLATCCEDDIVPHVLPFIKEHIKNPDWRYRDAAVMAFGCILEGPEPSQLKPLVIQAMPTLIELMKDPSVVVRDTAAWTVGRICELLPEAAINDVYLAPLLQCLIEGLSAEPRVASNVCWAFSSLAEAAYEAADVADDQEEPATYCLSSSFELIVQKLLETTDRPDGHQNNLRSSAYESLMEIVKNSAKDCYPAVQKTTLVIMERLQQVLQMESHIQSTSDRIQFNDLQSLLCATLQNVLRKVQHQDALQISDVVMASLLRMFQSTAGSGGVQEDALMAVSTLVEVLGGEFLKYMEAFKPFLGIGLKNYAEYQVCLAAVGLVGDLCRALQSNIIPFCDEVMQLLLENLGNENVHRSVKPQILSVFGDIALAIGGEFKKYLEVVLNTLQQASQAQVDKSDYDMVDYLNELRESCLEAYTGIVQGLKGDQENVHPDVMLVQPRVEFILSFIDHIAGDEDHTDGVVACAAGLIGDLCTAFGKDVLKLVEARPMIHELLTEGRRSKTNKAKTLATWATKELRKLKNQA
UniProt Q9NZQ7, residues 19-290: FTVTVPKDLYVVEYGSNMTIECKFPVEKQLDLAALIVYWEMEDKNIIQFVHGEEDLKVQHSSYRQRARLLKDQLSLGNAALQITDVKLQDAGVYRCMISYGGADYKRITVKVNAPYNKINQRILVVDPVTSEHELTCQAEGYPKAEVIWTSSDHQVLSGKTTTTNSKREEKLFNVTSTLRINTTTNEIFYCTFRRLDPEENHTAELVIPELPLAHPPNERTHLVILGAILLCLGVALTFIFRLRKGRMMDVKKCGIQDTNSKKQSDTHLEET

Results are given in words; binding and its absence hold for the method and conditions named. Binding seen in cells or lysates may run through a third protein. Some entries that bind do so weakly or less than the wild type.

The target in the assay is KPNB1 (human (endogenous in PC9R and A549R)) (UniProt Q14974). Kind of assay: co-IP; Pierce Classic Magnetic IP/Co-IP kit; PC9R and A549R cell lysates incubated overnight at 4°C with anti-KPNB1, anti-PD-L1 or anti-IgG (negative control), protein A/G magnetic beads; KPNB1 and PD-L1 detected by western blot.

In the case of PD-L1 (from UniProt Q9NZQ7 19-290), the binding entry is “binds”.
